Several values for one entry are separate records, joined by “and”; a condition that tells them apart may be missing. Equal values may be shown once. Out of some 300,000 compounds screened, about 3,700 (1.2%) were called active. This list was built around the results that the source calls inconclusive (neither active nor inactive); the mix of calls is not that of the screen. Calls follow the shape of the full dose curve; tested in HEK293 cells. Potencies beside an inconclusive call are fits to weak or partial responses and may not hold up.
Test: qHTS for Inhibitors of binding or entry into cells for Lassa Virus; also: nearly all actives have a fitted effect of over 50% in size
Details: Lassa virus pseudotype entry inhibition, cell reporter; series mostly up to 37.9 µM
Potency is read from the fitted curve at half-maximal effect.

Row | Structure (SMILES) | Potency
1 | CN(C)C(=O)Oc1ccc(C(=O)c2ccccc2)cc1 | inactive
2 | CCN(CC)C(=S)SCC(=O)Nc1ccc(S(N)(=O)=O)cc1 | inconclusive: 0.562 µM [inhibitor, full curve, poor fit]
3 | Cc1ccc(C(=O)N2CCCC(C(=O)c3ccc(Oc4ccccc4)cc3)C2)cn1 (stereo not drawn) | inconclusive: 15.8 µM [inhibitor, partial curve, poor fit]
4 | O=C(Nc1ccccc1Cl)c1ccn[nH]1 | inconclusive: 10 µM [activator, partial curve, poor fit]
5 | COc1ccc(-n2ncc(C(=O)N3CCc4ccccc4C3)c2C2CCN(C(=O)OC(C)(C)C)CC2)cc1 | inconclusive: 3.55 µM [inhibitor, full curve]
6 | CC(C)c1ccc(NC(=O)C2CC(=O)N(C(C)C)C2)cc1 (stereo not drawn) | inconclusive: 29.1 µM [activator, single point]
7 | Cc1cc(C)cc(NS(=O)(=O)c2ccc3c(c2)CCCN3C(=O)C2CCC2)c1 | inconclusive: 22.4 µM [inhibitor, single point]
8 | COc1ccc(/C=N/NC(=O)c2ccccc2OCc2ccccc2)c(OC)c1 | inconclusive: 2 µM [inhibitor, full curve, poor fit]
9 | CCCCN1C(=O)/C(=C/C=C2/CC(C)(C)CN2C)SC1=S | inactive
10 | COCCNC(=O)Cc1c(C)c2c(cc(C)c3c(C(C)(C)C)coc32)oc1=O | inconclusive: 17.8 µM [inhibitor, partial curve, poor fit]
11 | CCOC(=O)c1c(NC(=O)c2ccoc2C)sc(C)c1C | inactive
12 | O=C1C2CC=CCC2C(=O)N1c1ccc(NCCc2cccc(F)c2)c([N+](=O)[O-])c1 (stereo not drawn) | inconclusive: 6.31 µM [inhibitor, single point]
13 | O=C(CSc1nnc(CNC(=O)c2cccs2)o1)Nc1ccc2c(c1)OCO2 | inconclusive: 1.16 µM [activator, single point]
14 | CC(C)c1ccccc1OCC(=O)Nc1ccc2[nH]ncc2c1 | inconclusive: 35.5 µM [inhibitor, partial curve, poor fit]
15 | Cc1c(C(=O)NCc2cccs2)oc2ccc(Br)cc12 | inconclusive: 29.1 µM [inhibitor, single point]
16 | CNC(=O)C[C@H]1C(=O)N(c2ccc(OC)cc2)C[C@@H]1C | inconclusive: 2.23 µM [inhibitor, partial curve, poor fit]
17 | CSc1ccc2c(c1)C(N1CCN(C)CC1)Cc1ccccc1S2 (stereo not drawn) | active: 18.3 µM
18 | CC(C)CC(c1nnnn1C1CCCCC1)N1CCN(c2ncccn2)CC1 (stereo not drawn) | inconclusive: 20.6 µM [inhibitor, single point]
19 | Cc1ccc(Nc2cc(C)nc3ccc(C)cc23)cc1 | inconclusive: 7.94 µM [inhibitor, partial curve, poor fit]
20 | CC(C)CNC(=O)c1cccc2c1-c1ccccc1C2=O | inactive
21 | COc1cc([N+](=O)[O-])ccc1NC(=S)NC(=O)CC(C)(C)C | inactive
22 | Cc1ccc(C(=O)CSC2=C(C#N)C(c3ccco3)C3=C(CCCC3=O)N2)cc1 (stereo not drawn) | inconclusive: 2.06 µM [inhibitor, full curve]

Row | Structure (SMILES) | Potency
23 | Cc1ccc(S(=O)(=O)N2CCC(C(=O)Nc3ccccc3N3CCCC3)CC2)c(C)c1 | inactive
24 | O=C(NC(c1ccc(Cl)cc1)c1c(O)ccc2ccccc12)c1ccccc1 (stereo not drawn) | inconclusive: 29.1 µM [inhibitor, single point]
25 | CN1CC(c2ccccc2)C2(COc3ccccc3C2=O)C12C(=O)Nc1ccccc12 (stereo not drawn) | inconclusive: 35.5 µM [inhibitor, single point]
26 | S=c1[nH]nc(-c2ccccc2)c2ccccc12 | inconclusive: 6.51 µM [inhibitor, partial curve, poor fit]
27 | CCN(CC)C(=O)CN1C(=O)c2cccc3cccc1c23 | inactive
28 | Cc1cccc(NC(=O)CN(C)S(=O)(=O)c2cccs2)c1 | inactive
29 | Cc1ccc(C(=O)NCc2ccc3c(c2)OCO3)cc1S(=O)(=O)N1CCCCC1 | inconclusive: 20 µM [inhibitor, single point]
30 | Cc1ccc(C2CCN(C(=O)c3cnn(-c4ccc(C)cc4)c3C3CCN(C(=O)OC(C)(C)C)CC3)C2)cc1 (stereo not drawn) | inconclusive: 1 µM [inhibitor, full curve, poor fit]
31 | N#Cc1ccccc1NC(=O)C1SC(=Nc2ccccc2)C(C(=O)Nc2ccc(Cl)cc2)=C1N (stereo not drawn) | inconclusive: 35.5 µM [inhibitor, single point]
32 | C=Cc1ccc(Cn2c(C(=O)O)c(CNCc3ccccc3)c3ccc(C)cc32)cc1 | inconclusive: 35.5 µM [inhibitor, single point]
33 | CC(=O)N1CCCc2cc(S(=O)(=O)N3CCCC(C(=O)Nc4cc(Cl)ccc4C)C3)ccc21 (stereo not drawn) | inactive
34 | C/C(=N\NC(=O)c1cc(C)oc1C)c1ccc2c(c1)OCO2 | inactive
35 | CCc1ccc2c(CN3CCC(C(=O)OC)CC3)cc(=O)oc2c1 | inactive
36 | O=C(CS(=O)(=O)c1ccc2ccccc2c1)N1CCCCCC1 | inactive
37 | COc1ccc(NC(=O)c2ccc3c(=O)n4nc(Nc5cccc(Cl)c5C)sc4nc3c2)cc1 | inactive
38 | COc1ccc2nc(C)cc(SCC(=O)OC(C)C)c2c1 | inactive
39 | COc1ccc(Cn2nnnc2C(C(C)C)N2CCN(c3ccccc3OC)CC2)cc1 (stereo not drawn) | inconclusive: 35.5 µM [inhibitor, single point]
40 | Cc1ccc(N(C(=O)CNC(=O)c2ccco2)C(C(=O)NC2CCCC2)c2cccnc2)c(C)c1 (stereo not drawn) | inconclusive: 6.31 µM [inhibitor, single point]
41 | O=C(C1CCCN(S(=O)(=O)c2ccc(Br)s2)C1)N1CCN(c2ccccc2)CC1 (stereo not drawn) | inconclusive: 35.5 µM [inhibitor, single point] and inconclusive: 10 µM [inhibitor, partial curve, poor fit]
42 | CC(=O)N1CCN(S(=O)(=O)c2cccc(C(=O)NCCC3=CCCCC3)c2)CC1 | inconclusive: 0.0891 µM [activator, full curve, poor fit]
43 | CC(=O)C1=NN(c2ccccc2)C(c2cccs2)N1c1ccc(N(C)C)cc1 (stereo not drawn) | active: 20.6 µM

Individual results from the list.
Cc1cccc(NC(=O)CN(C)S(=O)(=O)c2cccs2)c1 – Potency: inactive
COc1ccc2nc(C)cc(SCC(=O)OC(C)C)c2c1 – Potency: inactive
Cc1ccc(C2CCN(C(=O)c3cnn(-c4ccc(C)cc4)c3C3CCN(C(=O)OC(C)(C)C)CC3)C2)cc1 (stereo not drawn) – Potency: inconclusive: 1 µM [inhibitor, full curve, poor fit]
